Several values for one entry are separate records, joined by “and”; a condition that tells them apart may be missing. Identical values can stand only once. Among all 580,000 compounds or so, about 6,100 (1.1%) were called active. Inconclusive results, whose numbers are uncertain, are shown with a selection of clear calls. The call rests on the fitted dose curve; in most records, active means well fitted inhibition curve with a large enough effect; inconclusive means small, poorly fitted or top-dose-only effect, or another doubt; inactive means no such curve, though single readings can be large or run the other way. Potencies beside an inconclusive call are fits to weak or partial responses and may not hold up.
The compounds below were run against Polyunsaturated fatty acid lipoxygenase ALOX12 (Homo sapiens) (UniProt P18054) (assay: Primary qHTS assay for inhibitors of human arachidonate 12S-lipoxygenase (ALOX12): Round 2). Settings: purified 12hLO, xylenol orange hydroperoxide absorbance; activity change, negative = inhibition: at 108 µM (top of the series) unless noted.
In short: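 Purified human 12hLO at 150 nM in 25 mM Hepes, 0.01% Triton X-100, pH 7.0, preincubated 15 min at room temperature with compound. Reaction started with 40 uM arachidonic acid, 30 min at room temperature. Hydroperoxide measured by Fe-xylenol orange, 573/405 nm absorbance ratio.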
On the % scale 0 is the no-effect control and ±100 the full control effect; potency means the concentration at half of the fitted maximal effect.

The chains behind the UniProt entries cited, without tags or fusion partners. Where a name states a change or a piece, a line headed by the entry shows the natural chain unless it says otherwise.
UniProt P18054: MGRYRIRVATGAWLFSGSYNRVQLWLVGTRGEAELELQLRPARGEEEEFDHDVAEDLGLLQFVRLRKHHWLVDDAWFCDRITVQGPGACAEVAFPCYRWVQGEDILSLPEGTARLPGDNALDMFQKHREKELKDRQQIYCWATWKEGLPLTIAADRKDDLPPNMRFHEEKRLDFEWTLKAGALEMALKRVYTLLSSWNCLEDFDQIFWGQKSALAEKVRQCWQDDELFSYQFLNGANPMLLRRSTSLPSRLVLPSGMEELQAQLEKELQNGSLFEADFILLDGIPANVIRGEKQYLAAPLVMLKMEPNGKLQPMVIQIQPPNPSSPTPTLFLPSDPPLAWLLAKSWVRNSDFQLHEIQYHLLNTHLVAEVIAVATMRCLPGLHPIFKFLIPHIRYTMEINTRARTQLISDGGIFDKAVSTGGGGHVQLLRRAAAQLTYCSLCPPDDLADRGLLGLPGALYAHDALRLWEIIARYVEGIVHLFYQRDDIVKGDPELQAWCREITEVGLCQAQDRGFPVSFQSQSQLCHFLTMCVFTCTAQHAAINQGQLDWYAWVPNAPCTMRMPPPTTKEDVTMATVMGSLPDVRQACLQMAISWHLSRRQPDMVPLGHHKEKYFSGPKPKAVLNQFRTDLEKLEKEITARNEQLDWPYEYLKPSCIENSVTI

Compound | Potency | activity change, negative = inhibition
C/C(=N/O)c1ccccc1O | inactive | –
CC(C)N(Cc1ccccc1)S(=O)(=O)c1ccc(-c2cc(C(F)(F)F)on2)s1 | inactive | –
CC(=O)Cc1nsc(NC(=O)c2ccccc2)n1 | inactive | –
COC(=O)[C@H]1C[C@@]2(O)CN(S(=O)(=O)c3ccc(C)cc3)C[C@@]2(OC(=O)Nc2cccs2)C[C@H]1C(=O)OC | inconclusive: 44.7 µM [inhibitor, partial curve, poor fit] | –
Cc1cc(NCCCNc2ccccc2)nc(-c2cccnc2)n1 | inconclusive: 112 µM [inhibitor, partial curve, poor fit] | –
CCOc1ccc(-c2nnc(SCc3nc4ccccc4[nH]3)n2N)cc1 | inactive | –
O=C(CSc1ncnc2sccc12)N(Cc1ccc(F)cc1)C1CCCCC1 | inactive | –
CCCOC(=O)c1c(-c2cccc(C)c2)csc1NC(=O)c1ccncc1 | inconclusive: 28.2 µM [inhibitor, partial curve, poor fit] | –
Cc1cccc(Oc2ccc(S(=O)(=O)N3CCCCC3)cc2NC(=O)c2ccncc2)c1 | inconclusive: 22.4 µM [inhibitor, partial curve, poor fit] | –
C#CCN(CC(=O)NC(=O)NC)C1CCCCC1 | inactive | –
CC(C)CC1NC(=O)c2cccnc2-n2c1nc1ccccc1c2=O (stereo not given) | inconclusive: 35.5 µM [inhibitor, partial curve] | –
CNc1nc(-c2ccc3c(c2)CCN3C(=O)c2ccc(F)cc2)cs1 | inactive | –
O=C(CSC1=NS(=O)(=O)c2ccccc2N1)Nc1ccc(F)cc1 | inconclusive: 50.1 µM [inhibitor, partial curve, poor fit] | –
COc1ccccc1Cc1c(-c2ccccc2)nc2ccc(Br)cn12 | inconclusive: 126 µM [inhibitor, single point] | –
O=C(COC(=O)c1ccc(Br)o1)Nc1ncc(Cl)cc1Cl | inconclusive: 44.7 µM [inhibitor, partial curve, poor fit] | –
Cn1c(=O)c2c(nc(SCc3ccccc3)n2Cc2ccc(Cl)cc2)n(C)c1=O | inconclusive: 44.7 µM [inhibitor, partial curve, poor fit] | –
CCOC(=O)c1[nH]c2ccc(OC)cc2c1NC(=O)CCN1CCSCC1 | inactive | –
CC12CCC(=O)N1C(C(=O)Nc1nc3ccc(Cl)cc3s1)CS2 (stereo not given) | inconclusive: 63.1 µM [inhibitor, partial curve, poor fit] | –
COc1ccc(-c2n[nH]c(=S)n2/N=C/C=C/c2ccccc2OC)cc1 | inconclusive: 158 µM [inhibitor, partial curve, poor fit] | –
Fc1ccc2c(c1)nc1n2[C@@H](CN(Cc2ccccn2)Cc2ccccn2)COC1 | inactive | –
COc1ccc(C=NNc2ccc([N+](=O)[O-])cc2S(=O)(=O)Nc2ccccc2C(=O)O)cc1OC | inconclusive: 50.1 µM [inhibitor, partial curve, poor fit] | –
CSCCC(NC(N)=O)C(=O)N(C)CC(=O)Nc1cc(C)ccc1C (stereo not given) | inactive | –

Compound | Potency | activity change, negative = inhibition
Nc1nccnc1C(=O)Nc1ccncc1 | inconclusive: 15.8 µM [inhibitor, single point] | –
COc1ccc2[nH]c3c(c2c1)CCNC31CCN(C(=O)C2CCN2C2CCCCC2)CC1 (stereo not given) | inactive | –
Cc1ccc(C(CNC(=O)c2ccco2)N2CCN(C)CC2)cc1 (stereo not given) | inconclusive: 141 µM [inhibitor, partial curve, poor fit] | –
CN(CCC1CCOCC1)C(=O)C1CCC(=O)N(CCc2ccc(Cl)cc2)C1 (stereo not given) | – | inconclusive: -30.3% [inhibitor]
O=C(NC1CCCCC1)C(c1ccc(C(F)(F)F)cc1)n1c(=O)c(-c2ccco2)nc2ccccc21 (stereo not given) | inconclusive: 56.2 µM [inhibitor, partial curve, poor fit] | –
CCCCCCCCN1CC(Cc2cc3ccccc3c3ccccc23)N(c2ccccc2)c2ccccc2C1=O (stereo not given) | inconclusive: 35.5 µM [inhibitor, partial curve, poor fit] | –
O=C(CSC(=S)N1CCCC1)N1CCN(S(=O)(=O)c2ccccc2F)CC1 | inconclusive: 44.7 µM [inhibitor, partial curve, poor fit] | –
CC(=O)C1=C(O)C(=O)N(CCc2c[nH]c3ccccc23)C1c1ccc(O)cc1 (stereo not given) | active: 8.91 µM | –
CCOc1cc(/C=C2\SC(=S)N(NC(=O)c3cccnc3)C2=O)ccc1O | inconclusive: 50.1 µM [inhibitor, partial curve, poor fit] | –
COc1ccc(C(=O)Nc2ccc(Oc3ncnc4sc(-c5ccccc5)cc34)cc2)cc1OC | inactive | –
Cc1ccc(C)c(NC(=O)/C(C#N)=C/c2cn(CC(=O)NCc3ccco3)c3ccccc23)c1 | inconclusive: 56.2 µM [inhibitor, partial curve, poor fit] | –
COc1ccccc1N1CCN(CC(O)c2c(C)[nH]c3ccccc23)CC1 (stereo not given) | inconclusive: 28.2 µM [inhibitor, single point] | –
CCN1CCc2c(C#N)c(N3CCOCC3)nc(N3CCOCC3)c2C1 | inactive | –
O=C(Nc1ncccn1)c1cccc(F)c1 | inconclusive: 158 µM [inhibitor, single point] | –
O=C(CN(C(=O)Cn1nnc(-c2ccc(F)cc2)n1)c1ccc(F)c(Cl)c1)NCC1CCCO1 (stereo not given) | inactive | –
Cc1ccccc1CC(=O)c1ccc(O)c(C)c1O | inconclusive: 56.2 µM [inhibitor, partial curve, poor fit] | –
CC(=O)C1=CC[C@H]2[C@@H]3CC=C4C[C@@H](O)CC[C@]4(C)[C@H]3CC[C@]12C | inconclusive: 39.8 µM [inhibitor, partial curve] | –
COc1ccc([C@H]2C[C@H](O)[C@@H](n3cc(C4CC4)nn3)CN2Cc2cccs2)cc1 | inconclusive: 89.1 µM [inhibitor, single point] | –
Nc1nccnc1C(=O)NCC(c1ccccc1)c1c[nH]c2ccccc12 (stereo not given) | inconclusive: 20 µM [inhibitor, full curve, poor fit] | –
COC(=O)c1ccccc1NS(=O)(=O)c1ccc(O)c(C(=O)O)c1 | inconclusive: 2 µM [inhibitor, full curve, poor fit] | –
C[C@@]12CCC3[C@@](CC[C@@H]4[C@](C)(C(=O)O)CCC[C@@]34C)(C[C@H]1O)C2 (stereo not given in full) | inconclusive: 0.282 µM [inhibitor, full curve, poor fit] | –
NC(=O)N/N=C\c1cc(Br)ccc1O | inactive | –

Compound | Potency | activity change, negative = inhibition
O=C(O)C(c1c[nH]c2cc(F)ccc12)N1CCN(c2ccccc2)CC1 (stereo not given) | inconclusive: 2.82 µM [inhibitor, full curve, poor fit] | –
CC1CC(C)CN(C(=O)c2cc3ccccc3o2)C1 (stereo not given) | inconclusive: 44.7 µM [inhibitor, partial curve, poor fit] | –
CCOc1ccc(S(=O)(=O)N2CCN(C(=O)c3cc([N+](=O)[O-])ccc3N3CCOCC3)CC2)cc1 | inconclusive: 100 µM [inhibitor, single point] | –
Cc1ccc(C)c(C(C)NC(=S)NCc2ccc(Cl)cc2)c1 (stereo not given) | active: 31.6 µM | –
COc1cc(Br)c(-c2sc(Nc3ccccc3)n[n+]2-c2ccccc2)cc1OC | inconclusive: 17.8 µM [inhibitor, full curve] | –
CN(CC(=O)Nc1ccc(Cl)c(C(F)(F)F)c1)C(=O)CC1Sc2ccccc2NC1=O (stereo not given) | inconclusive: 50.1 µM [inhibitor, partial curve, poor fit] | –
Cc1ccc(CCNS(=O)(=O)c2cc(-c3cc(C)no3)ccc2C)cc1 | inconclusive: 89.1 µM [inhibitor, partial curve, poor fit] | –
COc1ccc(CN(C(=O)c2cc(=O)[nH]c3ccc(S(=O)(=O)N4CCOCC4)cc23)C2CC2)cc1 | inconclusive: 35.5 µM [inhibitor, single point] | –
CC(C(=O)OCC(=O)NC1CCCCC1)N1C(=O)c2ccccc2C1=O (stereo not given) | inactive | –
COc1ccc(C(=O)CSC2=C(C#N)C3(CCCCC3)C(C#N)=C(N)N2)cc1 | inactive | –
Cc1ccc(C(=O)c2cc(O)c(O)c([N+](=O)[O-])c2)cc1 | active: 721 nM and active: 54.4 nM | –
Cc1cccc(Cn2nc(C)c(NC(=O)c3cc(-c4ccccc4)on3)c2C)c1 | inactive | –
Cc1nc(CN2CCN(CCOc3ccc(Cl)cc3)CC2)no1 | inactive | –
Cc1c(CN2CCCC(C(=O)c3cccc(OC(C)C)c3)C2)c(=O)n(-c2ccccc2)n1C (stereo not given) | inconclusive: 2 µM [inhibitor, full curve, poor fit] | –
Cc1ccc(/C=C/C(=O)N2CCN(S(=O)(=O)/C=C/c3ccccc3)CC2)o1 | inconclusive: 4.47 µM [inhibitor, full curve, poor fit] | –
O=C1COc2ccc(C(=O)c3ccccc3C(=O)NCc3ccccc3)cc2N1 | inconclusive: 100 µM [inhibitor, partial curve, poor fit] | –
CCCNC(=O)C1(C)CCN(Cc2csc3ccccc23)C1 (stereo not given) | inconclusive: 56.2 µM [inhibitor, partial curve, poor fit] | –
CC(C)N(C(=O)Cn1cc(SCC(=O)Nc2ccccc2F)c2ccccc21)C(C)C | inconclusive: 39.8 µM [inhibitor, partial curve, poor fit] | –
Cc1cc(C)c(NC(=O)Cn2cccc2-c2nc(-c3ccccc3)no2)c(C)c1 | inconclusive: 20 µM [inhibitor, full curve] | –
COc1ccc(C(=O)/C(=C\c2ccc(Cl)cc2)c2nc3ccccc3o2)cc1 | inactive | –
CC(=O)c1cc(C(=O)N2CCc3c(nc[nH]c3=O)C2)c(=O)[nH]c1C | inconclusive: 20 µM [inhibitor, full curve] | –

Reference: PubChem BioAssay AID1671190 (National Center for Advancing Translational Sciences (NCATS), 2021)
